Results deposited as PubChem BioAssay AID1259405 (NCATS, 2018).
Test: 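Knock-downs that lift recombinant protein yield in hamster ovary cells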 (primary screen). System: Chinese hamster CHO-K1 ovary cells with stable secreted eGFP expression. Reagent: single siRNA against mouse genes, 0.8 pmol siRNA per well (2 µl of 400 nM stock). Timing: 3 days. Measurement: 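Per-well intracellular GFP measured by laser scanning cytometry, plus viability from ATP luminescence, each relative to plate median of non-targeting control wells, in %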. Scale: GFP, % of control: higher = more GFP per well, higher productivity; viability (ATP), % of control: higher = more viable cells (more ATP). Rule for the call: 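a knock-down is called active if GFP reaches 120% or more of non-targeting control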.
Here is one part, drawn at random, of about 50,000 reagents. About 4,000 of all reagents (8%) were called active. 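Mouse siRNA library applied to hamster cells; one well for each siRNA.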 The numbers tell different reagents against one gene apart. Reagent sequences are not shown.

Rnf128 (GeneID 66889) #1
- GFP, % of control: 86.6
- viability (ATP), % of control: 61.7
- Call: inactive

Rnf128 (GeneID 66889) #2
- GFP, % of control: 33.4
- viability (ATP), % of control: 40
- Call: inactive

Rnf128 (GeneID 66889) #3
- GFP, % of control: 69.6
- viability (ATP), % of control: 72
- Call: inactive

Ache (GeneID 11423) #1
- GFP, % of control: 87.3
- viability (ATP), % of control: 98
- Call: inactive

Ache (GeneID 11423) #2
- GFP, % of control: 41.9
- viability (ATP), % of control: 22.1
- Call: inactive

Ache (GeneID 11423) #3
- GFP, % of control: 72.5
- viability (ATP), % of control: 75.2
- Call: inactive

Copied from the list.
Value for Rnf128 (GeneID 66889) #2 in “Call”: inactive
Ache (GeneID 11423) #3, GFP, % of control: 72.5

More entries follow.
Abl1 (GeneID 11350) #1
- GFP, % of control: 294
- viability (ATP), % of control: 94
- Call: active

Abl1 (GeneID 11350) #2
- GFP, % of control: 62.3
- viability (ATP), % of control: 56.3
- Call: inactive

Abl1 (GeneID 11350) #3
- GFP, % of control: 68.3
- viability (ATP), % of control: 79.8
- Call: inactive

Abl1 (GeneID 11350) #4
- GFP, % of control: 110
- viability (ATP), % of control: 77.1
- Call: inactive

Abl1 (GeneID 11350) #5
- GFP, % of control: 101
- viability (ATP), % of control: 99.5
- Call: inactive

Abl1 (GeneID 11350) #6
- GFP, % of control: 75.4
- viability (ATP), % of control: 74.7
- Call: inactive

Etfa (GeneID 110842) #1
- GFP, % of control: 74.1
- viability (ATP), % of control: 71.4
- Call: inactive

Etfa (GeneID 110842) #2
- GFP, % of control: 61.2
- viability (ATP), % of control: 68.2
- Call: inactive

Pard6b (GeneID 58220) #1
- GFP, % of control: 87
- viability (ATP), % of control: 48.2
- Call: inactive

Pard6b (GeneID 58220) #2
- GFP, % of control: 86.8
- viability (ATP), % of control: 61.3
- Call: inactive

Pard6b (GeneID 58220) #3
- GFP, % of control: 109
- viability (ATP), % of control: 132
- Call: inactive
